Laboratory results taken from article PMC3596311, “PTB-Associated Splicing Factor (PSF) Is a PPARγ-Binding Protein and Growth Regulator of Colon Cancer Cells” (PLoS ONE, 2013).
No constants are given. Whether binding was seen depends on the method and setting. Some entries that bind do so weakly or less than the wild type.

Assays:
Experiment in all cases: two-hybrid; mammalian two-hybrid in CV-1 cells: GAL4 DNA-binding domain-PSF (pFN11A) and VP16-PPARγ1 (pFN10A), GAL4-UAS luciferase reporter; also with rosiglitazone 0.1–10 µM, which did not affect the interaction
[1] = target: T1, Gal4-PSF deletion mutant 290–707 (human) (UniProt P23246)
T1 sequence: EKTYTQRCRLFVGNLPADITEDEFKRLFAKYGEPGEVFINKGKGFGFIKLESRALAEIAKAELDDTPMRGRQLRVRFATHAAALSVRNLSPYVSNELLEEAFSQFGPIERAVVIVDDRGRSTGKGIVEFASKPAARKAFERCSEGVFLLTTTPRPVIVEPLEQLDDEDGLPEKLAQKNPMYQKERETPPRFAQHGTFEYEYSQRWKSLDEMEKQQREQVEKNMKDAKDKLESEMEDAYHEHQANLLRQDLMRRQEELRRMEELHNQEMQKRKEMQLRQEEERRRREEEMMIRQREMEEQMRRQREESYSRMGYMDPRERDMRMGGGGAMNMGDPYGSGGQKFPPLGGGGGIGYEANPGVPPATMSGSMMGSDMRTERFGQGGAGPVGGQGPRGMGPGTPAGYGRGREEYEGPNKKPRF

[2] = target: T2, Gal4-PSF deletion mutant 370–707 (human) (UniProt P23246)
T2 sequence: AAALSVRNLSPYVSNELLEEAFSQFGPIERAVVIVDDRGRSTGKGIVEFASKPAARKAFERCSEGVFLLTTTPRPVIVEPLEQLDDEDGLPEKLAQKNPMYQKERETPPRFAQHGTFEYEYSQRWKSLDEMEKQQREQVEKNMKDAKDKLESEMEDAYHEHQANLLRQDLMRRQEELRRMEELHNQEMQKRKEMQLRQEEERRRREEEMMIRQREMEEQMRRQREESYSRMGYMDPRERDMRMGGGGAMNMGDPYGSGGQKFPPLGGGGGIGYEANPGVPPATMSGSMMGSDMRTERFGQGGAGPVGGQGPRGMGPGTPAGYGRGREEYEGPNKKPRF

[3] = target: T3, Gal4-PSF deletion mutant 450–707 (human) (UniProt P23246)
T3 sequence: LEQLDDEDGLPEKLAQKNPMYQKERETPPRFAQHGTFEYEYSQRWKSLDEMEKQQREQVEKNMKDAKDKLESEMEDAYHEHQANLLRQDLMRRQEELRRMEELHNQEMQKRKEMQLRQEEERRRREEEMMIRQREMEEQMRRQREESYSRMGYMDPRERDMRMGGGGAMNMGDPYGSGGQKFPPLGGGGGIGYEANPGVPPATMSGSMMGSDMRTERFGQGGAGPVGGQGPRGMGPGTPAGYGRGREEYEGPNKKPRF

B1: PPARγ1, full-length, fused to the VP16 activation domain (pFN10A-PPARγ1) (natural protein, UniProt P37231-2 1-477, looked up)
chain: MTMVDTEMPFWPTNFGISSVDLSVMEDHSHSFDIKPFTTVDFSSISTPHYEDIPFTRTDPVVADYKYDLKLQEYQSAIKVEPASPPYYSEKTQLYNKPHEEPSNSLMAIECRVCGDKASGFHYGVHACEGCKGFFRRTIRLKLIYDRCDLNCRIHKKSRNKCQYCRFQKCLAVGMSHNAIRFGRMPQAEKEKLLAEISSDIDQLNPESADLRALAKHLYDSYIKSFPLTKAKARAILTGKTTDKSPFVIYDMNSLMMGEDKIKFKHITPLQEQSKEVAIRIFQGCQFRSVEAVQEITEYAKSIPGFVNLDLNDQVTLLKYGVHEIIYTMLASLMNKDGVLISEGQGFMTREFLKSLRKPFGDFMEPKFEFAVKFNALELDDSDLAIFIAVIILSGDRPGLLNVKPIEDIQDNLLQALELQLKLNHPESSQLFAKLLQKMTDLRQIVTEHVQLLQVIKKTETDMSLHPLLQEIYKDLY
notes: CheckMate/Flexi Vector Mammalian Two-Hybrid System (Promega), vector pFN10A; also called VP16-PPARγ; VP-16-PPARγ1; source: CV-1 cells, transiently transfected, mammalian two-hybrid fusion
With B1 the binding [1] was “binds”, the binding [2] was “no binding” and the binding [3] was “no binding”.
